Experiment [1] addresses SmC-MC3R (MC3R with C-terminal SmBiT) (human) (UniProt P41968). The experiment is described as follows: split reporter; NanoBiT competition in HEK293 cells: NanoBiT constructs co-transfected with pcDNA or untagged MRAP2.
The target is the same in experiment [2]. The experiment is described as follows: split reporter; NanoBiT in transiently transfected HEK293 cells, both proteins tagged at the C-terminus, 100 ng of each plasmid (saturation: 100 ng SmC-MC3R with increasing LgC-MRAP2), luminescence read at 37 °C, normalised to the negative control (MC3R-SmC and LgC-Empty).
Experiment [3] has as its target LgC-MC3R (MC3R with C-terminal LgBiT) (human) (UniProt P41968). Put plainly: split reporter; NanoBiT competition in HEK293 cells: NanoBiT constructs co-transfected with pcDNA or untagged MRAP2.
Experiment [4] shares this target. The experiment is described as follows: split reporter; NanoBiT in transiently transfected HEK293 cells, both proteins tagged at the C-terminus, 100 ng of each plasmid (saturation: 100 ng SmC-MC3R with increasing LgC-MRAP2), luminescence read at 37 °C, normalised to the negative control (MC3R-SmC and LgC-Empty).

Protein sequences, listed by entry. Tags and fused reporters are not part of them.
UniProt P41968: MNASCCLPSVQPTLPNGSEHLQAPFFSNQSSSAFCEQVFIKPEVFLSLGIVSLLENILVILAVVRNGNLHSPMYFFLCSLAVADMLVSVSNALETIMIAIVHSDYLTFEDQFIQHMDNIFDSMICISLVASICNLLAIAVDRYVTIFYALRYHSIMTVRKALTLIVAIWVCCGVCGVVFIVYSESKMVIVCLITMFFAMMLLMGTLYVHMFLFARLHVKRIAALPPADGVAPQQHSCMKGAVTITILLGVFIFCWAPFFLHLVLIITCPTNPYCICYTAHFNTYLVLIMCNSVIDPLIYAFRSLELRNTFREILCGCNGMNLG

These are yes or no findings as the source states them, for the method shown. Binding seen in cells or lysates may run through a third protein. Some results given as binding are weak or reduced against the parent protein; the word gives no strength. For part of these data: Tags and fused reporters may be left off the sequences shown.

B1: LgC-MRAP2 (MRAP2 with C-terminal LgBiT) (protein, UniProt Q96G30 1-205)
chain: MSAQRLISNRTSQQSASNSDYTWEYEYYEIGPVSFEGLKAHKYSIVIGFWVGLAVFVIFMFFVLTLLTKTGAPHQDNAESSEKRFRMNSFVSDFGRPLEPDKVFSRQGNEESRSLFHCYINEVERLDRAKACHQTTALDSDVQLQEAIRSSGQPEEELNRLMKFDIPNFVNTDQNYFGEDDLLISEPPIVLETKPLSQTSHKDLD
Take B1: the binding result in experiment [1] and in experiment [2] was “binds” each time.

B2: untagged MRAP2 (protein, UniProt Q96G30 1-205)
chain: MSAQRLISNRTSQQSASNSDYTWEYEYYEIGPVSFEGLKAHKYSIVIGFWVGLAVFVIFMFFVLTLLTKTGAPHQDNAESSEKRFRMNSFVSDFGRPLEPDKVFSRQGNEESRSLFHCYINEVERLDRAKACHQTTALDSDVQLQEAIRSSGQPEEELNRLMKFDIPNFVNTDQNYFGEDDLLISEPPIVLETKPLSQTSHKDLD
As for B2, the binding result in experiment [3] and in experiment [1] was “binds” in each case.

B3: SmC-MRAP2 (MRAP2 with C-terminal SmBiT) (protein, UniProt Q96G30 1-205)
chain: MSAQRLISNRTSQQSASNSDYTWEYEYYEIGPVSFEGLKAHKYSIVIGFWVGLAVFVIFMFFVLTLLTKTGAPHQDNAESSEKRFRMNSFVSDFGRPLEPDKVFSRQGNEESRSLFHCYINEVERLDRAKACHQTTALDSDVQLQEAIRSSGQPEEELNRLMKFDIPNFVNTDQNYFGEDDLLISEPPIVLETKPLSQTSHKDLD
On to B3, for which the binding result in experiment [3] and in experiment [4] was “binds” each time.
